# Source: PubChem BioAssay AID1347423 (Functional Genomics Laboratory (NCATS/FGL), 2020)
# Hit rate of the full screen: of about 52,000 sequences, about 210 (0.4%) were called active.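 The calls were made as follows: active = gene whose silencing raises cell survival under the drug, median off-target-corrected z-score across its silencing RNAs 2 or more; inactive = the rest.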 Some of the results follow.
# Experiment: Resistance to Poly (ADP-Ribose) Polymerase inhibitor: Gene Identification via Genome-wide siRNA Screen
# Conditions: mouse BRCA2 R2336H ES cells, olaparib, CellTiter-Glo viability; hits give high values
# Summary of the method: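 Mouse BRCA2 R2336H ES cells were reverse-transfected with siRNA (20 nM final), treated at 48 h with 500 nM olaparib, and read by CellTiter-Glo after 72 h. Scores: MAD-based z per siRNA, median per gene, seed off-target correction.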
row,Sequence,z-score
1,CCUUCUUGUCCUUCUUUUCTT against Olfr503,inactive: -0.0512
2,CGUGUUUGACAAGGCAUUGTT against Vps11,inactive: 0.43
3,GGCUUCAGCUAUUGGGCAATT against 4930405J24Rik,inactive: -0.0645
4,AGCUGCUCUGAGUUAGAAATT against Scd2,inactive: -1.09
5,GGAUUAUCAAUGAAUAGCATT against C030002O17Rik,inactive: 1.11
6,GGAGCAUGAGGAUUACUGUTT against Fln29,inactive: 0.111
7,GGACUGAGAAGAAAUGAGUTT against Il27ra,inactive: 0.408
8,CCUCAUCGUUAUUUGGAUCTT against Tacr3,inactive: -0.306
9,GGUUUAAUGAGCAUCCCUUTT against C330039G02Rik,inactive: 1.09
10,GGUAUCUUGAGAAGCCAAUTT against Stat3,inactive: 0.549
11,GGAGAUGUAACCAUAGGCCTT against Dctn6,inactive: 0.334
12,GCCUGUAAGGAGAAUCAGCTT against Car4,inactive: -0.793
13,GGACAAUAUAUCCGGAUUUTT against Mylc2b,inactive: 1.52
14,CCAAGUACUGGAAAUUCAATT against Mmp15,inactive: 1.52
15,GCAGUCGCCGCUUUGUAAATT against Tlx3,inactive: -1.31
16,GCCUCAUCGUAUAUAAAAUTT against 2010107E04Rik,inactive: -0.224
17,GUGCAUUGUCUUUUGUAGATT against Olfr1095,inactive: -0.255
18,CCGUUUAACAGCAUAUCAUTT against Gm606,inactive: 1.19
19,GGAGACUGUCUAAUAAAAATT against 6330406I15Rik,inactive: -0.612
20,GGACCAGAUCCUUCUGCUATT against Ubd,inactive: -2.2
21,GGGACUGUACUCAUUUCUATT against 1700045I19Rik,inactive: -0.632
22,GGUAACCUACAGUCAAAGUTT against Gckr,inactive: -0.643

row,Sequence,z-score
1,AUAGACUCUUCCAUCGGCATT against Ppp1r13l,inactive: -2.37
2,CCCUCUAUCAGUUACCCUGTT against Mcpt2,inactive: -0.902
3,GGCAGAACUUACACGAGAUTT against Pphln1,inactive: -0.825
4,CCUAAUGGAAGGGAAGCCATT against 2810437L13Rik,inactive: -0.624
5,GGCUAAGUCCAACUUUAGATT against Tmprss5,inactive: -0.00948
6,CCCAGGACUCGGAUUAGAATT against 4933406J04Rik,inactive: 0.0905
7,GGGAUCUGUGUUGAAUGAATT against BC064033,inactive: -0.647
8,UUGUCCUGGUCUCCUAUGCTT against Olfr141,inactive: -1.98
9,GGUCUACUGGCGUAAUUACTT against BC025105,inactive: -0.682
10,GCUGGUGGCAAUCAGAAAATT against Nppc,inactive: 0.237
11,GCAAGGAAGGUUUUCAAGUTT against Gsta2,inactive: 0.714
12,GGAAAUAAAUGGCAGCAUGTT against H2-T3,inactive: 0.27
13,GCCAUUUUAUUGAAGCAAGTT against Sema3a,inactive: -1.72
14,CCCUAGGAGUACAUCAAAUTT against 1700001O22Rik,inactive: 1.23
15,GCAAUGCCUCAUUUCCUUGTT against 4930429A08Rik,inactive: -1.51
16,GCUGUGGAAUAAAACUAUUTT against BC003885,inactive: -0.229
17,GGUAGACUAUGCUAAAUUATT against Pabpc5,inactive: 0.646
18,GCCUAUCGUGGAGAUUCUGTT against Cab39l,inactive: -0.837
19,GGCCAUUUCGUACCUUUGUTT against Plxna3,inactive: -0.0637
20,GGCAACUAUAAGUACAUAGTT against Gsta3,inactive: -0.356
21,GGAGGAAGUGAAGAAGAUATT against Echdc1,inactive: 2.34
22,GCUGAAGAAUGCUAUAAUUTT against Olfr63,inactive: -0.00337

row,Sequence,z-score
1,GGCCUAUUCUACCUGUAGCTT against Olfr167,inactive: -0.236
2,GGAGAAACUGAUGACAGUGTT against Plcb3,active: 1.47
3,CCAUUGAUCUGAUGCAAAATT against Tacstd1,inactive: 1.55
4,GGUGCCGCCUUUGAUUGCATT against Gsto1,inactive: -2.05
5,GCAUUAUGUCAGUAGCUCATT against Snrpb,inactive: -2.71
6,CGCCUACUGCUUCAGGAUATT against 1810009H17Rik,inactive: 0.393
7,GAAAGCUAACCUCUUUCUGTT against Ang2,inactive: 0.378
8,GGAAAUGCCACUAAAGAGUTT against Zdhhc3,inactive: -0.899
9,CGGAGUUCAGCAUUUACCCTT against 3110001K24Rik,inactive: 0.0824
10,GGAGGUCCUGAAACACCUCTT against Apc2,inactive: 0.268
11,CCAAUCCCAUCCUCAUCCUTT against Fev,inactive: -0.694
12,GCAGGGACUAACUUUCACCTT against Wdr8,inactive: -0.321
13,GCACCUUAAUUCUUCGCCATT against AI415330,inactive: 0.624
14,GGAUACUGCCAUUCAUAGGTT against 9230104L09Rik,inactive: 0.597
15,CGAAUUUACAAGUUGUGCUTT against 1810048J11Rik,inactive: 1.36
16,GGAUCUUAUUAUUUGAUCCTT against 0610027B03Rik,inactive: 0.553
17,GGAGCAUUUUUUUGUUUCUTT against Cul4b,inactive: -2.16
18,GGAGUGAAGAUCUGAUUGCTT against Aaas,inactive: 0.323
19,GGACUCGUUGGUCAUGUCUTT against A730098P15,inactive: -0.282
20,GGAUGGUCUUAGGAUUACGTT against Fgf15,inactive: 1.1
21,GCUAAUGCUAGUGAAAUUCTT against 3000004N20Rik,inactive: 0.979
22,GGUCAUGGUCUGAGAUUCUTT against Txnl4,inactive: 0.353

# Some values from the entries so far:
# Under z-score, CCUAAUGGAAGGGAAGCCATT against 2810437L13Rik is entered as inactive: -0.624
# Under z-score, GCCUAUCGUGGAGAUUCUGTT against Cab39l is entered as inactive: -0.837
# Under z-score, GGUCAUGGUCUGAGAUUCUTT against Txnl4 is entered as inactive: 0.353
# Under z-score, GGAGCAUGAGGAUUACUGUTT against Fln29 is entered as inactive: 0.111
